Test results from PMC9278091, “ATP‐independent molecular chaperone activity generated under reducing conditions” (Protein Science : A Publication of the Protein Society, 2022).
Results are given in words; binding and its absence hold for the method and conditions named. Some entries that bind do so weakly or less than the wild type.

Biological target: NT*-Bri2 BRICHOScys mutant C223S (NT*-Bri2 BRICHOScys 164-164 dimer) (human) (UniProt Q9Y287)
Test: non-reducing SDS-PAGE and Western blot; dimer fractions of Bri2 BRICHOScys mutants with or without NT* mixed 1:1 at 10 μM final protein, 20 mM phosphate buffer pH 8, 0.2 mM EDTA, 0.02% NaN3, 2.5x thrombin inhibitor, 37°C overnight; mixed disulfide band; both purified

Substance: Bri2 BRICHOScys mutant C223S without NT* tag (Cys164-Cys164 dimer) (from UniProt Q9Y287 113-231) (domain or fragment)
- binding: binds weakly
